Laboratory results published in publication PMC4762649, “Tel1 and Rif2 Regulate MRX Functions in End-Tethering and Repair of DNA Double-Strand Breaks” (PLoS Biology, 2016).
No constants are given. Whether binding was seen depends on the method and setting. Binding seen in cells or lysates may run through a third protein. Some binding calls cover weakened binding; strength is not graded here. Where a sequence is shown, tags or fusion partners need not be part of it.

T1: Mre11-Myc (S. cerevisiae) (UniProt P32829)
T1 sequence: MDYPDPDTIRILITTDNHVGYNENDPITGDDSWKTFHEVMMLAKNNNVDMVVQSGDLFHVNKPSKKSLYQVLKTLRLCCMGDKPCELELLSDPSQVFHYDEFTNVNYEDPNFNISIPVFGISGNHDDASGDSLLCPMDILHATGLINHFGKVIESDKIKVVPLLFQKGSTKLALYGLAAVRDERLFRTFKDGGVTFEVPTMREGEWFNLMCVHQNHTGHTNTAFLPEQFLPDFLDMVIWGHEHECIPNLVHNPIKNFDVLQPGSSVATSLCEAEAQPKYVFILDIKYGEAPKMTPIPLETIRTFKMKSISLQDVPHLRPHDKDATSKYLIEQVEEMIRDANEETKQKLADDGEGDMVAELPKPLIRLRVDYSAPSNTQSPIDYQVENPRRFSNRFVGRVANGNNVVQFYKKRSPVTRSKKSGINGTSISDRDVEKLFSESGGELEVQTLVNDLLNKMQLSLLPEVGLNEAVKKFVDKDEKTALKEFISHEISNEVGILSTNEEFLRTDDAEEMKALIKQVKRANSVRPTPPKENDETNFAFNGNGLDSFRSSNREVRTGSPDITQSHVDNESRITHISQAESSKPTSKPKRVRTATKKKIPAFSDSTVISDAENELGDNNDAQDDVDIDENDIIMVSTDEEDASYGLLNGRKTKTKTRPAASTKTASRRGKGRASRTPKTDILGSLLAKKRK

B1: Rad50-HA (protein, UniProt P12753 1-1312)
chain: MSAIYKLSIQGIRSFDSNDRETIEFGKPLTLIVGMNGSGKTTIIECLKYATTGDLPPNSKGGVFIHDPKITGEKDIRAQVKLAFTSANGLNMIVTRNIQLLMKKTTTTFKTLEGQLVAINNSGDRSTLSTRSLELDAQVPLYLGVPKAILEYVIFCHQEDSLWPLSEPSNLKKKFDEIFQAMKFTKALDNLKSIKKDMSVDIKLLKQSVEHLKLDKDRSKAMKLNIHQLQTKIDQYNEEVSEIESQLNEITEKSDKLFKSNQDFQKILSKVENLKNTKLSISDQVKRLSNSIDILDLSKPDLQNLLANFSKVLMDKNNQLRDLETDISSLKDRQSSLQSLSNSLIRRQGELEAGKETYEKNRNHLSSLKEAFQHKFQGLSNIENSDMAQVNHEMSQFKAFISQDLTDTIDQFAKDIQLKETNLSDLIKSITVDSQNLEYNKKDRSKLIHDSEELAEKLKSFKSLSTQDSLNHELENLKTYKEKLQSWESENIIPKLNQKIEEKNNEMIILENQIEKFQDRIMKTNQQADLYAKLGLIKKSINTKLDELQKITEKLQNDSRIRQVFPLTQEFQRADLEMDFQKLFINMQKNIAINNKKMHELDRRYTNALYNLNTIEKDLQDNQKSKEKVIQLLSENLPEDCTIDEYNDVLEETELSYKTALENLKMHQTTLEFNRKALEIAERDSCCYLCSRKFENESFKSKLLQELKTKTDANFEKTLKDTVQNEKEYLHSLRLLEKHIITLNSINEKIDNSQKCLEKAKEETKTSKSKLDELEVDSTKLKDEKELAESEIRPLIEKFTYLEKELKDLENSSKTISEELSIYNTSEDGIQTVDELRDQQRKMNDSLRELRKTISDLQMEKDEKVRENSRMINLIKEKELTVSEIESSLTQKQNIDDSIRSKRENINDIDSRVKELEARIISLKNKKDEAQSVLDKVKNERDIQVRNKQKTVADINRLIDRFQTIYNEVVDFEAKGFDELQTTIKELELNKAQMLELKEQLDLKSNEVNEEKRKLADSNNEEKNLKQNLELIELKSQLQHIESEISRLDVQNAEAERDKYQEESLRLRTRFEKLSSENAGKLGEMKQLQNQIDSLTHQLRTDYKDIEKNYHKEWVELQTRSFVTDDIDVYSKALDSAIMKYHGLKMQDINRIIDELWKRTYSGTDIDTIKIRSDEVSSTVKGKSYNYRVVMYKQDVELDMRGRCSAGQKVLASIIIRLALSETFGANCGVIALDEPTTNLDEENIESLAKSLHNIINMRRHQKNFQLIVITHDEKFLGHMNAAAFTDHFFKVKRDDRQKSQIEWVDINRVTY
B2: Rad50-V1269M-HA (protein, UniProt P12753 1-1312)
chain: MSAIYKLSIQGIRSFDSNDRETIEFGKPLTLIVGMNGSGKTTIIECLKYATTGDLPPNSKGGVFIHDPKITGEKDIRAQVKLAFTSANGLNMIVTRNIQLLMKKTTTTFKTLEGQLVAINNSGDRSTLSTRSLELDAQVPLYLGVPKAILEYVIFCHQEDSLWPLSEPSNLKKKFDEIFQAMKFTKALDNLKSIKKDMSVDIKLLKQSVEHLKLDKDRSKAMKLNIHQLQTKIDQYNEEVSEIESQLNEITEKSDKLFKSNQDFQKILSKVENLKNTKLSISDQVKRLSNSIDILDLSKPDLQNLLANFSKVLMDKNNQLRDLETDISSLKDRQSSLQSLSNSLIRRQGELEAGKETYEKNRNHLSSLKEAFQHKFQGLSNIENSDMAQVNHEMSQFKAFISQDLTDTIDQFAKDIQLKETNLSDLIKSITVDSQNLEYNKKDRSKLIHDSEELAEKLKSFKSLSTQDSLNHELENLKTYKEKLQSWESENIIPKLNQKIEEKNNEMIILENQIEKFQDRIMKTNQQADLYAKLGLIKKSINTKLDELQKITEKLQNDSRIRQVFPLTQEFQRADLEMDFQKLFINMQKNIAINNKKMHELDRRYTNALYNLNTIEKDLQDNQKSKEKVIQLLSENLPEDCTIDEYNDVLEETELSYKTALENLKMHQTTLEFNRKALEIAERDSCCYLCSRKFENESFKSKLLQELKTKTDANFEKTLKDTVQNEKEYLHSLRLLEKHIITLNSINEKIDNSQKCLEKAKEETKTSKSKLDELEVDSTKLKDEKELAESEIRPLIEKFTYLEKELKDLENSSKTISEELSIYNTSEDGIQTVDELRDQQRKMNDSLRELRKTISDLQMEKDEKVRENSRMINLIKEKELTVSEIESSLTQKQNIDDSIRSKRENINDIDSRVKELEARIISLKNKKDEAQSVLDKVKNERDIQVRNKQKTVADINRLIDRFQTIYNEVVDFEAKGFDELQTTIKELELNKAQMLELKEQLDLKSNEVNEEKRKLADSNNEEKNLKQNLELIELKSQLQHIESEISRLDVQNAEAERDKYQEESLRLRTRFEKLSSENAGKLGEMKQLQNQIDSLTHQLRTDYKDIEKNYHKEWVELQTRSFVTDDIDVYSKALDSAIMKYHGLKMQDINRIIDELWKRTYSGTDIDTIKIRSDEVSSTVKGKSYNYRVVMYKQDVELDMRGRCSAGQKVLASIIIRLALSETFGANCGVIALDEPTTNLDEENIESLAKSLHNIINMRRHQKNFQLIMITHDEKFLGHMNAAAFTDHFFKVKRDDRQKSQIEWVDINRVTY

Biological target: T1, Mre11-Myc (S. cerevisiae)
Experiment: co-IP; Mre11-Myc immunoprecipitated with anti-Myc antibodies from yeast extracts; western blot with anti-HA or anti-Myc antibodies

| Binder | binding |
| --- | --- |
| B1 | binds |
| B2 | binds |
